{"source": "PubChem BioAssay AID2417", "about": "(National Center for Advancing Translational Sciences (NCATS), 2010)", "note": "Hit rate of the full screen: of about 140,000 compounds, about 4,300 (3.1%) were called active. Inconclusive results, whose numbers are uncertain, are shown with a selection of clear calls.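 Rule for the calls: active = readout at or below -70, meaning at least 70% loss of cells showing the perinucleolar compartment, a nuclear body marking cancer cells; inconclusive = readout between -30 and a set limit; inactive = the rest.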"}
{"test": "High Content Assay for Compounds that inhibit the Assembly of the Perinucleolar Compartment;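 note: plate controls were DMSO wells for no effect and camptothecin positive control wells for full effect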", "settings": "PC3M PTB-GFP, PNC prevalence imaging, 16 h; at 10 µM; hits give low values", "how_it_was_run": "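Read-out is percentage of cells bearing a perinucleolar compartment, from automated 20x imaging of fixed, Hoechst-stained PC3M PTB-GFP cells. Cells were seeded 4 h, then exposed 16 h to compound (23 nl of library stock) in duplicate plates.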"}
{"compound": "O=C(O)CSCCOc1ccc(OCCSCC(=O)O)cc1", "activity change (PNC), negative = inhibition": "inactive: 3.4%"}
{"compound": "CN1C(=O)CC(N2CCN(C(=O)CN3CCCC3)CC2)C1=O", "note": "(stereo not given)", "activity change (PNC), negative = inhibition": "inactive: -4.83%"}
{"compound": "C=CCn1c(SCc2c(F)c(F)c(F)c(F)c2F)nc(O)cc1=O", "activity change (PNC), negative = inhibition": "inconclusive: -33.4%"}
{"compound": "CC1CN(S(=O)(=O)c2ccc(C(=O)Nc3sccc3C(N)=O)cc2)CC(C)O1", "note": "(stereo not given)", "activity change (PNC), negative = inhibition": "inconclusive: -36%"}
{"compound": "C=C(C)CSc1nnc(-c2cccc(S(=O)(=O)N(C)C)c2)n1-c1cc(OC)ccc1OC", "activity change (PNC), negative = inhibition": "inconclusive: -39.6%"}
{"compound": "CC(C)CC(N=C1NC(C)(C)Cc2ccccc21)C(=O)O", "note": "(stereo not given)", "activity change (PNC), negative = inhibition": "inconclusive: -33.1%"}
{"compound": "CCOC(=O)C1=C(C)NC2=C(C(=O)C(C(=O)OC)C(C)C2)C1c1ccc(OC)c(O)c1", "note": "(stereo not given)", "activity change (PNC), negative = inhibition": "inconclusive: -30.8%"}
{"compound": "COc1cccc(-c2cc(C(F)(F)F)nc(NCc3ccco3)n2)c1", "activity change (PNC), negative = inhibition": "active: -100%"}
{"compound": "O=C(ON=C1CCN(S(=O)(=O)c2ccccc2)CC1)c1ccc(F)cc1", "activity change (PNC), negative = inhibition": "active: -100%"}
{"compound": "COc1ccc(S(=O)(=O)Cc2ccc(C(=O)N3CCC(C(N)=O)CC3)o2)cc1", "activity change (PNC), negative = inhibition": "active: -85.1%"}
{"compound": "CCOc1cccc(NC(=O)C(Cc2cccs2)c2nn[nH]n2)c1", "note": "(stereo not given)", "activity change (PNC), negative = inhibition": "inconclusive: -32.7%"}
{"compound": "CC(C)(C)c1ccc(OCC(=O)NNC(=O)CCc2ccccc2)cc1", "activity change (PNC), negative = inhibition": "inconclusive: -48.6%"}
{"compound": "CCOC(=O)CSc1nnc(-c2ccoc2C)n1-c1ccc(OCC)cc1", "activity change (PNC), negative = inhibition": "inactive: 7.05%"}
{"compound": "Cc1cc(C)c(C(=O)COC(=O)c2cccc(S(=O)(=O)NCc3ccccc3)c2)cc1C", "activity change (PNC), negative = inhibition": "inactive: 10.7%"}
{"compound": "Cc1ccccc1N(C(=O)c1cccs1)c1nc2ccccc2s1", "activity change (PNC), negative = inhibition": "inconclusive: -30.4%"}
{"compound": "O=C(COc1ccc(/C=N/NC(=O)c2ccccc2O)cc1)Nc1ccc([N+](=O)[O-])cc1", "activity change (PNC), negative = inhibition": "inconclusive: -36.4%"}
{"compound": "Cc1ccc(-c2ccc(/C=C/C(=O)c3ccccc3)o2)cc1", "activity change (PNC), negative = inhibition": "inconclusive: -33.3%"}
{"compound": "CCN(C(=O)COc1cccnc1[N+](=O)[O-])C1CCS(=O)(=O)C1", "note": "(stereo not given)", "activity change (PNC), negative = inhibition": "inconclusive: -41.2%"}
{"compound": "CSc1nc(-c2ccc(Cl)cc2Cl)[nH]c(=O)c1C#N", "activity change (PNC), negative = inhibition": "inconclusive: -31.2%"}
{"compound": "O=c1c2ccccc2nc(COc2ccccc2)n1/N=C/c1ccco1", "activity change (PNC), negative = inhibition": "inactive: 39.6%"}
{"compound": "COc1ccc(/C=C/C(=O)Nc2sc(Cc3ccccc3)c(C)c2C(N)=O)cc1", "activity change (PNC), negative = inhibition": "inconclusive: -62.4%"}
{"compound": "Cc1nonc1OC(C)CNc1ccc([N+](=O)[O-])cc1", "note": "(stereo not given)", "activity change (PNC), negative = inhibition": "inconclusive: -35%"}
{"compound": "O=C1c2cccc3cccc(c23)C(=O)N1/N=C/c1ccc(O)cc1O", "activity change (PNC), negative = inhibition": "inconclusive: -62.9%"}
{"compound": "Cc1ccc(S(=O)(=O)N2C(=O)C(C)SC2=Nc2ccccc2)cc1", "note": "(stereo not given)", "activity change (PNC), negative = inhibition": "inconclusive: -45.1%"}
{"compound": "O=S(=O)(c1cccc(C(F)(F)F)c1)N1CCC(c2cc(-c3cccc4ccccc34)n[nH]2)CC1", "activity change (PNC), negative = inhibition": "inactive: 69.6%"}
{"compound": "O=C(O)/C=C/C(=O)Nc1ccccc1-c1ccccc1", "activity change (PNC), negative = inhibition": "active: -109%"}
{"compound": "S=c1nc(-c2ccccc2Br)[nH][nH]1", "activity change (PNC), negative = inhibition": "inconclusive: -70.9%"}
{"compound": "CCOC(=O)N1CCN(C(=O)CS(=O)(=O)c2cn(Cc3ccccc3C)c3ccccc23)CC1", "activity change (PNC), negative = inhibition": "inconclusive: -44.7%"}
{"compound": "CC1Cc2ccccc2N1C(=O)CSc1ncc(-c2ccc(F)cc2)n1C", "note": "(stereo not given)", "activity change (PNC), negative = inhibition": "inconclusive: -67.2%"}
{"compound": "CC(N)C12CC3CC(C1)CC(C(C)N)(C3)C2", "note": "(stereo not given)", "activity change (PNC), negative = inhibition": "inconclusive: -39.2%"}
{"compound": "O=C(O)c1c2c(nc3ccc(S(=O)(=O)N4CCC(C(=O)NC5CCCC5)CC4)cc13)CCCCC2", "activity change (PNC), negative = inhibition": "inactive: -7.26%"}
{"compound": "CCCn1c(N)c(C(=O)CSc2nnc(C3CC3)n2Cc2ccccc2)c(=O)[nH]c1=O", "activity change (PNC), negative = inhibition": "inconclusive: -36.3%"}
{"compound": "O=C(O)C1NCCc2ccccc21", "note": "(stereo not given)", "activity change (PNC), negative = inhibition": "inconclusive: -32.4%"}
{"compound": "CCOc1ccc(NC(=O)c2ccc(F)c(S(=O)(=O)N3CCN(c4ccccn4)CC3)c2)cc1", "activity change (PNC), negative = inhibition": "inconclusive: -30.8%"}
{"compound": "O=S(=O)(Nc1nc2ccccc2nc1N1CCN(c2ccccc2)CC1)c1ccc(F)cc1", "activity change (PNC), negative = inhibition": "inconclusive: -44.3%"}
{"compound": "CCOC(=O)C1=C(c2ccccc2)NC(=S)NC1c1cccc([N+](=O)[O-])c1", "note": "(stereo not given)", "activity change (PNC), negative = inhibition": "inactive: -20.1%"}
{"compound": "COc1ccc(-c2[nH]nc3c2C(c2ccccc2OC(=O)N2CCOCC2)C(C#N)=C(N)O3)cc1", "note": "(stereo not given)", "activity change (PNC), negative = inhibition": "inconclusive: -41.7%"}
{"compound": "Cc1ccc(-c2noc(CSc3nnc(Cc4cccs4)n3-c3ccccc3)n2)cc1", "activity change (PNC), negative = inhibition": "inconclusive: -33.8%"}
{"compound": "COc1ccc(C(=O)NC2(C(F)(F)F)NC(=O)N(CCCc3ccccc3)C2=O)c(OC)c1OC", "note": "(stereo not given)", "activity change (PNC), negative = inhibition": "inactive: -8.14%"}
{"compound": "COCCn1nnnc1C(c1cc2ccc(OC)cc2[nH]c1=O)N1CCN(C2CCCCC2)CC1", "note": "(stereo not given)", "activity change (PNC), negative = inhibition": "inactive: 36.6%"}
{"compound": "COc1cccc(/C=N/NC(=O)c2cc3cc([N+](=O)[O-])ccc3s2)c1O", "activity change (PNC), negative = inhibition": "inconclusive: -40%"}
{"compound": "C#CC[N+](C)(C)CCCCCCCC", "activity change (PNC), negative = inhibition": "inconclusive: -31.3%"}
{"compound": "Cc1ccc(C)n1/N=C1/NC(=O)CS1", "activity change (PNC), negative = inhibition": "inconclusive: -42.9%"}
{"compound": "CCc1ccc(N(CC(=O)NC)S(C)(=O)=O)cc1", "activity change (PNC), negative = inhibition": "inconclusive: -68%"}
{"compound": "CC(C)NS(=O)(=O)c1ccc(NC(=O)NC2CCCCC2)cc1", "activity change (PNC), negative = inhibition": "inactive: 39.7%"}
{"compound": "Cc1cc(C(=O)N2CCN(c3cccc(Cl)c3)CC2)c(C)o1", "activity change (PNC), negative = inhibition": "inconclusive: -62.4%"}
{"compound": "N#Cc1sc2nc3c(c(-c4ccco4)c2c1N)CCCC3", "activity change (PNC), negative = inhibition": "inconclusive: -57.3%"}
{"compound": "O=C(c1cc(-c2ccncc2)nc2ccccc12)N1CCN(S(=O)(=O)/C=C/c2ccccc2)CC1", "activity change (PNC), negative = inhibition": "inconclusive: -36.4%"}
{"compound": "COc1ccc(S(=O)(=O)N2CC(O)CC2C(=O)OCc2nc3sc(C)c(C)c3c(=O)[nH]2)cc1", "note": "(stereo not given)", "activity change (PNC), negative = inhibition": "inconclusive: -35.2%"}
{"compound": "CCc1nc(NCc2cccnc2)c2oc3ccccc3c2n1", "activity change (PNC), negative = inhibition": "inconclusive: -43%"}
{"compound": "Cc1cc(C)c2c(c1)cc(C)c1nnc(SCC(=O)Nc3cc(C)on3)n12", "activity change (PNC), negative = inhibition": "active: -88.4%"}
{"compound": "Oc1ccc(-c2n[nH]c(=S)n2-c2ccc3c(c2)OCCO3)cc1", "activity change (PNC), negative = inhibition": "inactive: -28.2%"}
{"compound": "CCOC(=O)c1c(NC(=O)CCN2CCOCC2)sc2c1CC(C)(C)OC2", "activity change (PNC), negative = inhibition": "inconclusive: -48.1%"}
{"compound": "CC(C)(C)c1ccc(S(=O)(=O)n2c(CN3CCOCC3)nc3ccccc32)cc1", "activity change (PNC), negative = inhibition": "inconclusive: -42.8%"}
{"compound": "Cc1sc(NC(=O)CCCC(=O)O)c(C#N)c1C", "activity change (PNC), negative = inhibition": "inconclusive: -70.8%"}
